{"source": "PubChem BioAssay AID504791 (Drosophila RNAi Screening Center, 2011)", "test": "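Genes of the fly required for silencing by miRNA, siRNA or endo-siRNA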 (primary screen)", "cells": "Drosophila S2-derived reporter cells", "reagent": "long dsRNA against Drosophila genes, about 150-250 ng dsRNA per well (siRNA assay); about 80-120 ng (miRNA assay)", "time to read-out": "about 5 days (siRNA assay); about 4 days (miRNA assay)", "challenge": "copper sulfate induction of reporters: 25 µM (siRNA assay); 200 mM stated (miRNA assay), 1-2 days before reading", "detection": "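Dual luciferase assay: Renilla to firefly signal ratio in each well, scaled to the mean ratio of its plate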", "units": "stable assay Renilla, run 1 in luminescence; stable assay firefly, run 1 in luminescence", "active means": "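First-pass picks had plate-scaled ratios over 1.5 for the siRNA assay, over 1.6 for the miRNA assay, or under 0.6; two distinct dsRNAs had to score alike on retest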", "note": "The screen tested about 23,000 reagents; this is an unselected part of those with a known target gene and a result. Of all reagents, 199 (0.86%) are marked active. 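Plate-scaled ratios behind the calls are not deposited; printed light signals are raw; many rows marked increased or decreased are still called inactive.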 A number with no mark means an inactive call. Reagent sequences are not shown. Not given: the direction of the score."}
{"Target gene": "osa", "DRSC id": "DRSC17022", "stable assay Renilla, run 1": 9842, "stable assay firefly, run 1": 6.08e5}
{"Target gene": "elgi", "DRSC id": "DRSC10242", "stable assay Renilla, run 1": 8951, "stable assay firefly, run 1": 3.10e5}
{"Target gene": "alien", "DRSC id": "DRSC03482", "miRNA reporter change": "reporter ratio lowered past the hit cutoff", "stable assay Renilla, run 1": 4792, "stable assay firefly, run 1": 6.10e5}
{"Target gene": "atlas", "DRSC id": "DRSC04183", "stable assay Renilla, run 1": 6911, "stable assay firefly, run 1": 5.10e5}
{"Target gene": "fest", "DRSC id": "DRSC07349", "stable assay Renilla, run 1": 5815, "stable assay firefly, run 1": 2.62e5}
{"Target gene": "inv", "DRSC id": "DRSC07633", "stable assay Renilla, run 1": 5845, "stable assay firefly, run 1": 4.13e5}
{"Target gene": "CG30187", "DRSC id": "DRSC22461", "stable assay Renilla, run 1": 3831, "stable assay firefly, run 1": 3.54e5}
{"Target gene": "CG9121", "DRSC id": "DRSC03142", "stable assay Renilla, run 1": 6543, "stable assay firefly, run 1": 3.21e5}
{"Target gene": "moon", "DRSC id": "DRSC19497", "stable assay Renilla, run 1": 4307, "stable assay firefly, run 1": 3.01e5}
{"Target gene": "CG6287", "DRSC id": "DRSC02947", "stable assay Renilla, run 1": 16651, "stable assay firefly, run 1": 1.03e6}
{"Target gene": "CG15263", "DRSC id": "DRSC01974", "stable assay Renilla, run 1": 4503, "stable assay firefly, run 1": 4.80e5}
{"Target gene": "pigs", "DRSC id": "DRSC17472", "stable assay Renilla, run 1": 5699, "stable assay firefly, run 1": 4.12e5}
{"Target gene": "pigs", "DRSC id": "DRSC18334", "stable assay Renilla, run 1": 5711, "stable assay firefly, run 1": 4.23e5}
{"Target gene": "pigs", "DRSC id": "DRSC18335", "stable assay Renilla, run 1": 5671, "stable assay firefly, run 1": 3.55e5}
